Measured values reported in publication PMC12752551.

The chains behind the UniProt entries cited, without tags or fusion partners. Residues count along the entry.
UniProt O43143: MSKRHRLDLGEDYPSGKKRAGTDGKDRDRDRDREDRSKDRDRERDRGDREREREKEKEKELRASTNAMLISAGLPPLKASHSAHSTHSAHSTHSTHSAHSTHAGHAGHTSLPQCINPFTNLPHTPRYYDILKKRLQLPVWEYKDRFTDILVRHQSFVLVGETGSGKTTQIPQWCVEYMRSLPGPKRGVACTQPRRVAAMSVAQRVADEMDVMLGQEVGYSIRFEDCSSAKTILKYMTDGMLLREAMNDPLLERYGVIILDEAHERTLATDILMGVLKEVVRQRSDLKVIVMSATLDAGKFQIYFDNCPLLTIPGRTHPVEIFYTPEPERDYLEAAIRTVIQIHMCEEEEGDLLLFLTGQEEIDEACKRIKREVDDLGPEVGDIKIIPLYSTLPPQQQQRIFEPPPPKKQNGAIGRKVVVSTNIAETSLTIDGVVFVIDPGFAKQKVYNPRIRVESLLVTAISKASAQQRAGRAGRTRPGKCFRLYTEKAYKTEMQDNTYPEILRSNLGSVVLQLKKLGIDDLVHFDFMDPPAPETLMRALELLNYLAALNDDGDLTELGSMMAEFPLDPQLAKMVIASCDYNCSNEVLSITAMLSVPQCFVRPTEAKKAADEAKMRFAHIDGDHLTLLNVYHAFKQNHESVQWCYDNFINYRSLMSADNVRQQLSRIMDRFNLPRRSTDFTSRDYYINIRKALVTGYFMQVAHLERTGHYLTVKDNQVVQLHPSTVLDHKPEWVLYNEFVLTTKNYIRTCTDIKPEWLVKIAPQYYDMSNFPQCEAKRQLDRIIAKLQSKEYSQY
UniProt O75533: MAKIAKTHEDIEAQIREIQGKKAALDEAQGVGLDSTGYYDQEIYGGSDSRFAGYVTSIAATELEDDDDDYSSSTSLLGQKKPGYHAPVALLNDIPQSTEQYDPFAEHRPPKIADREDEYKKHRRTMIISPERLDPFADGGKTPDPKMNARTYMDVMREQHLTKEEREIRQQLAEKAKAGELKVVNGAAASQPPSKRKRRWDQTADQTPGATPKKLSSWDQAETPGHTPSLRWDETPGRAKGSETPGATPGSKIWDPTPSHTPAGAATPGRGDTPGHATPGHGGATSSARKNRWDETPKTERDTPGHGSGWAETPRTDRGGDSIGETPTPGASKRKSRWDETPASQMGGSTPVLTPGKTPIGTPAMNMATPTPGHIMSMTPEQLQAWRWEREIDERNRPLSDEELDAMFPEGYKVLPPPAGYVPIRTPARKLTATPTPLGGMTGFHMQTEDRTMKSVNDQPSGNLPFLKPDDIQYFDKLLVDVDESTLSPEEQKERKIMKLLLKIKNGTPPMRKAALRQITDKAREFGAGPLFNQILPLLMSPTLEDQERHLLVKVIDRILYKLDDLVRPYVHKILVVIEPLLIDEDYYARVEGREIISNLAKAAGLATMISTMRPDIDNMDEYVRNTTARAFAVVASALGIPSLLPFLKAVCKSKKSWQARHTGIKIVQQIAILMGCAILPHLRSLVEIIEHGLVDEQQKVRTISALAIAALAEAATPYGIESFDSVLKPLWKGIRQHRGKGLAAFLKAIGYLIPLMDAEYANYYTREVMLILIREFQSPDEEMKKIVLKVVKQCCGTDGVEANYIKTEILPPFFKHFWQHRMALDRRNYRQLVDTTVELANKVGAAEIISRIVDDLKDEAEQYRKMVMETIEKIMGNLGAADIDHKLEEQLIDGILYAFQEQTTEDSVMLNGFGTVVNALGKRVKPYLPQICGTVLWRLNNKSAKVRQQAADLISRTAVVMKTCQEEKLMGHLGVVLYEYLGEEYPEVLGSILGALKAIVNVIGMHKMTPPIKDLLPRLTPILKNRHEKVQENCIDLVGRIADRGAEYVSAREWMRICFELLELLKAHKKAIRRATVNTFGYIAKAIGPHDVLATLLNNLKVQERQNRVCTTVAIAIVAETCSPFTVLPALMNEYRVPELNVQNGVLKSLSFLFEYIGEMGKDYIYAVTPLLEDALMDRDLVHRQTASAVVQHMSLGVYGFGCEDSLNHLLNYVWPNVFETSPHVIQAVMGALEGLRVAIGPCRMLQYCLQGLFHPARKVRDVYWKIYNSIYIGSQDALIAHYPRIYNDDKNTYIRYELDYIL
UniProt P04264: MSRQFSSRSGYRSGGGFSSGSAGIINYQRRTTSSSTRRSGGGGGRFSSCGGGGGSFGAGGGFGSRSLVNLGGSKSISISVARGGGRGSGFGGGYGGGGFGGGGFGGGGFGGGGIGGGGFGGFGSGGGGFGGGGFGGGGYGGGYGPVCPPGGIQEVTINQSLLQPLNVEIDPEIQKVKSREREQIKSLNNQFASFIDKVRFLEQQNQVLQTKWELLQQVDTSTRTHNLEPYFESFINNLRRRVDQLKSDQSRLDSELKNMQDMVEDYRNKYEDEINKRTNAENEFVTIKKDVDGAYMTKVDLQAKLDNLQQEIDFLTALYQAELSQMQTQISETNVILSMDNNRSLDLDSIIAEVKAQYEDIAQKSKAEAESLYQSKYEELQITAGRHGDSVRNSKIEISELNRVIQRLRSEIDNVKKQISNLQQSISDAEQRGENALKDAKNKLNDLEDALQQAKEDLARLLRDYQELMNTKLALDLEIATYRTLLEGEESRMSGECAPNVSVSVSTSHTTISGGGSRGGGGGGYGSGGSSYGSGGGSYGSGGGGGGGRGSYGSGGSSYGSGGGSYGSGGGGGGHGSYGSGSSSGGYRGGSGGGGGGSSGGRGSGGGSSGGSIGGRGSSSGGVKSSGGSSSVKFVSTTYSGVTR
UniProt P02768, residues 25-609: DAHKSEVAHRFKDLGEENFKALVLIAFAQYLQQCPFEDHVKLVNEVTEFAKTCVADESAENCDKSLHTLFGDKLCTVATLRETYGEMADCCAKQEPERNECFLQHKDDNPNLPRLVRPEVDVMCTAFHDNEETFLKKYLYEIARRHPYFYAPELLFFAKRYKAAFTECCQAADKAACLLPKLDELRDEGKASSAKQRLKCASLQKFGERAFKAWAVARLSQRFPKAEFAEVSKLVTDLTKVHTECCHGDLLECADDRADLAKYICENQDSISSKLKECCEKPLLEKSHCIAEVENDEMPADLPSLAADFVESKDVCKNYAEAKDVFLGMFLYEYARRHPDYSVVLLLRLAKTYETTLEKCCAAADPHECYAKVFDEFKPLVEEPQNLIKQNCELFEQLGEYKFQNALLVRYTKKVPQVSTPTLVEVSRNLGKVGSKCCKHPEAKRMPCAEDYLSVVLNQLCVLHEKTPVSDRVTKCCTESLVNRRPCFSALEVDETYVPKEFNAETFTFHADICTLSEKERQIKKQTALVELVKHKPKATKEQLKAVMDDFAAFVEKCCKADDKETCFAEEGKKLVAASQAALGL
UniProt P08238: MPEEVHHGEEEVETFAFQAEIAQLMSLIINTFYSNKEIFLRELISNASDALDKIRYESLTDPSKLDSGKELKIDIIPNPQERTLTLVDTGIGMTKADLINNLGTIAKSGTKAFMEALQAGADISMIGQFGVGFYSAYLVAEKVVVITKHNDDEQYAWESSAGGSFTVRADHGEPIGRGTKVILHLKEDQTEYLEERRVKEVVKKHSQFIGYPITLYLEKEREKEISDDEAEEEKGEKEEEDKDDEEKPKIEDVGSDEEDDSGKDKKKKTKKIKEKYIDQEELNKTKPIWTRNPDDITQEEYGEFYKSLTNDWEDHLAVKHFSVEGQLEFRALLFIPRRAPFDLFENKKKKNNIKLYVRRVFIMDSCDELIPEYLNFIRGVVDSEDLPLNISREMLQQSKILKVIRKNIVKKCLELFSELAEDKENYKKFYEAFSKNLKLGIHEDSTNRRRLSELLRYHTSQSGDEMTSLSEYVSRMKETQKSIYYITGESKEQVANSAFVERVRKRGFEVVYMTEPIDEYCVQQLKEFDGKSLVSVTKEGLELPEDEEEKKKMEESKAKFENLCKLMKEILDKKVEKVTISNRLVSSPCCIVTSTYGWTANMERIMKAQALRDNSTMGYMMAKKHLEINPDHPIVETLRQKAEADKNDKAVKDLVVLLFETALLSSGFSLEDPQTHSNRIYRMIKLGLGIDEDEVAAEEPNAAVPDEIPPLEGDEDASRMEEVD
UniProt P35579: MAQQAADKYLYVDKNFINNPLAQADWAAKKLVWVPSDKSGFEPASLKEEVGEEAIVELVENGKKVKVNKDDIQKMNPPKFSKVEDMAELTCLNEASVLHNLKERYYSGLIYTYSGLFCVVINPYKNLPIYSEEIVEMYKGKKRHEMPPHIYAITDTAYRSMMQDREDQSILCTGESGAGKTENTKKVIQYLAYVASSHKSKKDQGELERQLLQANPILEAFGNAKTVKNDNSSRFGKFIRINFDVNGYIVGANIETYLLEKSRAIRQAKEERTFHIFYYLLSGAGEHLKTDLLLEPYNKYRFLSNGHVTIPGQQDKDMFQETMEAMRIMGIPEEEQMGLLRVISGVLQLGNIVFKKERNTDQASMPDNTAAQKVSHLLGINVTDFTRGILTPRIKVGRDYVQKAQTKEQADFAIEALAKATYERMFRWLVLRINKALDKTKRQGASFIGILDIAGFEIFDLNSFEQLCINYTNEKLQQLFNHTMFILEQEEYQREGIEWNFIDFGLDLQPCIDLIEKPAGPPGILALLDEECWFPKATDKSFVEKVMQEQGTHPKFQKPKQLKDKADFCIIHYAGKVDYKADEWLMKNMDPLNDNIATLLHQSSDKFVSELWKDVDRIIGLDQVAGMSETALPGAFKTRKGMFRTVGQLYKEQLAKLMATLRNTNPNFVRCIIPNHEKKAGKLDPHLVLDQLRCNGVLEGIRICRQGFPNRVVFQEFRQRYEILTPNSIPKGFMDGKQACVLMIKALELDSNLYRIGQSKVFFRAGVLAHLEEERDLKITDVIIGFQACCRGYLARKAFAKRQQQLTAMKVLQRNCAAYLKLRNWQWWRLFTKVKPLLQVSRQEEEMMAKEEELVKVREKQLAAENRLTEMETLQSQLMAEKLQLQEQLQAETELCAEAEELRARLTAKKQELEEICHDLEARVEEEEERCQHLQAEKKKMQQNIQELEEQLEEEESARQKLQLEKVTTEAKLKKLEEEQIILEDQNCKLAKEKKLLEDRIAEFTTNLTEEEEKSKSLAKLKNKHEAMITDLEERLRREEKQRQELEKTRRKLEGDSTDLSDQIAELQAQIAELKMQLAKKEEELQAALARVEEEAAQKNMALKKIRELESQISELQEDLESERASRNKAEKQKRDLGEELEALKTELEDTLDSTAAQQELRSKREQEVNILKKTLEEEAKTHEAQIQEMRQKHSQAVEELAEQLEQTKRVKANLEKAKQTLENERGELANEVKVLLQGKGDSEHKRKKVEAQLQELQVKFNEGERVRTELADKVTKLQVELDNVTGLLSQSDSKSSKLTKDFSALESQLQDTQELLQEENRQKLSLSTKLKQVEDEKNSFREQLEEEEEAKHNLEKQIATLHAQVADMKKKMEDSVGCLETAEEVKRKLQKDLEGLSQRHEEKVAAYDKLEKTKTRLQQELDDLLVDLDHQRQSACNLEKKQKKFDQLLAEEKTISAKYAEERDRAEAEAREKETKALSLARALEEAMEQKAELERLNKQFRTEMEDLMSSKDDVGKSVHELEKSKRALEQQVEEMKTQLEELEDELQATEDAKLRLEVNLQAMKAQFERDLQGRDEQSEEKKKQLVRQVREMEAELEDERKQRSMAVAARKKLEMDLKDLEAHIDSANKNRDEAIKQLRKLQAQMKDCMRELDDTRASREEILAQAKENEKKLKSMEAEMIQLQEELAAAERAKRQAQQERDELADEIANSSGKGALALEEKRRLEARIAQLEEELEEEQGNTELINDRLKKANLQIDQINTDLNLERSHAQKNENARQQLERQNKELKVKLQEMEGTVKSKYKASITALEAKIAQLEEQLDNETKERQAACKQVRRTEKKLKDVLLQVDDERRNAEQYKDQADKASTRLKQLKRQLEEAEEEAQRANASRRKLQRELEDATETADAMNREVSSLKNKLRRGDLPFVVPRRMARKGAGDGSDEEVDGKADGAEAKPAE

B1: RFWD3, endogenous (protein, UniProt Q6PCD5 1-774)
chain: MAHEAMEYDVQVQLNHAEQQPAPAGMASSQGGPALLQPVPADVVSSQGVPSILQPAPAEVISSQATPPLLQPAPQLSVDLTEVEVLGEDTVENINPRTSEQHRQGSDGNHTIPASSLHSMTNFISGLQRLHGMLEFLRPSSSNHSVGPMRTRRRVSASRRARAGGSQRTDSARLRAPLDAYFQVSRTQPDLPATTYDSETRNPVSEELQVSSSSDSDSDSSAEYGGVVDQAEESGAVILEEQLAGVSAEQEVTCIDGGKTLPKQPSPQKSEPLLPSASMDEEEGDTCTICLEQWTNAGDHRLSALRCGHLFGYRCISTWLKGQVRKCPQCNKKARHSDIVVLYARTLRALDTSEQERMKSSLLKEQMLRKQAELESAQCRLQLQVLTDKCTRLQRRVQDLQKLTSHQSQNLQQPRGSQAWVLSCSPSSQGQHKHKYHFQKTFTVSQAGNCRIMAYCDALSCLVISQPSPQASFLPGFGVKMLSTANMKSSQYIPMHGKQIRGLAFSSYLRGLLLSASLDNTIKLTSLETNTVVQTYNAGRPVWSCCWCLDEANYIYAGLANGSILVYDVRNTSSHVQELVAQKARCPLVSLSYMPRAASAAFPYGGVLAGTLEDASFWEQKMDFSHWPHVLPLEPGGCIDFQTENSSRHCLVTYRPDKNHTTIRSVLMEMSYRLDDTGNPICSCQPVHTFFGGPTCKLLTKNAIFQSPENDGNILVCTGDEAANSALLWDAASGSLLQDLQTDQPVLDICPFEVNRNSYLATLTEKMVHIYKWE
B2: KRT9 (protein, UniProt P35527 1-623)
chain: MSCRQFSSSYLSRSGGGGGGGLGSGGSIRSSYSRFSSSGGGGGGGRFSSSSGYGGGSSRVCGRGGGGSFGYSYGGGSGGGFSASSLGGGFGGGSRGFGGASGGGYSSSGGFGGGFGGGSGGGFGGGYGSGFGGFGGFGGGAGGGDGGILTANEKSTMQELNSRLASYLDKVQALEEANNDLENKIQDWYDKKGPAAIQKNYSPYYNTIDDLKDQIVDLTVGNNKTLLDIDNTRMTLDDFRIKFEMEQNLRQGVDADINGLRQVLDNLTMEKSDLEMQYETLQEELMALKKNHKEEMSQLTGQNSGDVNVEINVAPGKDLTKTLNDMRQEYEQLIAKNRKDIENQYETQITQIEHEVSSSGQEVQSSAKEVTQLRHGVQELEIELQSQLSKKAALEKSLEDTKNRYCGQLQMIQEQISNLEAQITDVRQEIECQNQEYSLLLSIKMRLEKEIETYHNLLEGGQEDFESSGAGKIGLGGRGGSGGSYGRGSRGGSGGSYGGGGSGGGYGGGSGSRGGSGGSYGGGSGSGGGSGGGYGGGSGGGHSGGSGGGHSGGSGGNYGGGSGSGGGSGGGYGGGSGSRGGSGGSHGGGSGFGGESGGSYGGGEEASGSGGGYGGGSGKSSHS

Biological target: T1, Flag-TREX1 (three-prime repair exonuclease 1) (UniProt Q9NSU2)
T1 sequence: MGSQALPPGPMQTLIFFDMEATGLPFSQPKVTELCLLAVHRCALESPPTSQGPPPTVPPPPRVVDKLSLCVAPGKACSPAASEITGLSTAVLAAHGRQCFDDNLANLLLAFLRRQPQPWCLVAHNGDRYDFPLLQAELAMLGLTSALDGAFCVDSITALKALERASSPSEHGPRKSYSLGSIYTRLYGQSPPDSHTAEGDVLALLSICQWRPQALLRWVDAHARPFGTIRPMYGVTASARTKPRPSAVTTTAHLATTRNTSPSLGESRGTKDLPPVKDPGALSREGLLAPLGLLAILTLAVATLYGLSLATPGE
Assay: affinity purification with mass spectrometry; A549 cells transfected with Flag-TREX1 or empty vector for 48 h; lysate in IP buffer (40 mM Tris-HCl pH 7.4, 150 mM NaCl, 0.5% NP-40); anti-Flag M2 magnetic beads 10 h at 4 °C; gel bands digested, LC-MS/MS

Row | Molecule | binding
1 | DEAH-Box Helicase 15 (from UniProt O43143 1-795) | binds
2 | Splicing Factor 3b Subunit 1 (from UniProt O75533 1-1304) | binds
3 | RNA Binding Motif Protein 10 (from UniProt P98175 1-930) | binds
4 | Keratin 1 (from UniProt P04264 1-644) | binds
5 | Albumin (from UniProt P02768 25-609) | binds
6 | Heat Shock Protein 90 Alpha Family Class B Member 1 (from UniProt P08238 1-724) | binds
7 | Myosin Heavy Chain 9 (from UniProt P35579 1-1960) | binds
8 | B1 | binds
9 | B2 | binds

These are yes or no findings as the source states them, for the method shown. Binding seen in cells or lysates may run through a third protein. These calls come from enrichment with a bait or labelling near it, and not all partners need be listed. Tags and fused reporters may be left off the sequences shown.
